Data as given in PubChem BioAssay AID1259281 (Sanger Institute, 2017)
Shown is a random part of 794 reagents. 22 of all reagents (2.8%) count as active. 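Calls rest on knock-down alone only; drug synergy scores play no part in them.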 Viability is capped at 1. Not stated in the record: the amount of reagent, the time to read-out.

Test: 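Screen kinases and frequently colorectal-mutated genes for lethal knock-downs and drug partners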 (primary screen)
Cell system: human COLO678 colorectal cancer cell line
Knock-down reagent: siRNA pool against human genes
Treatment: anchor drugs at fixed doses: BYL719 1 µM, cetuximab 5 µg/ml or trametinib 10 nM; DMSO vehicle for the siRNA-alone arm
Measured: 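Surviving cells scaled to non-targeting siRNA control as replicate means; robust z-score for knock-down alone; synergy scores weigh knock-down with drug against the predicted combined effect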
Direction: robust z-score, siRNA alone: higher = more viable cells; strongly negative means essential; viability, siRNA alone: higher = more surviving cells; synergy score with BYL719 and synergy score with trametinib and synergy score with cetuximab: higher = stronger synergistic killing with drug
Hit rule: 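Called essential (knock-down alone) if knock-down by itself drops cell number to a robust z-score under -3; all others no change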
Calls: active = essential (knock-down alone); inactive = no change

| target gene | robust z-score, siRNA alone | viability, siRNA alone (fraction of control) | synergy score with BYL719 | synergy score with trametinib | synergy score with cetuximab | activity call |
| --- | --- | --- | --- | --- | --- | --- |
| YES1 | 0.473 | 1 | -0.0919 | -0.0309 | -0.0254 | inactive |
| SRC | -0.152 | 0.98 | -0.11 | -0.00961 | 0.0189 | inactive |
| DDR2 | 0.473 | 1 | -0.0656 | 0.00915 | -0.0681 | inactive |
| FGFR1 | 0.473 | 1 | -0.0919 | 0.0349 | 0.0124 | inactive |
| PIK3CG | -0.45 | 0.971 | 0.118 | -0.0448 | 0.079 | inactive |
| PKN1 | 0.473 | 1 | -0.0108 | 0.00802 | -0.0336 | inactive |
| PAK6 | 0.473 | 1 | 0.0101 | -0.0715 | 0.0151 | inactive |
| MYH10 | 0.473 | 1 | -0.0402 | -0.00363 | 0.0165 | inactive |
| FOXP1 | -3.89 | 0.861 | -0.131 | -0.128 | -0.0286 | active |
| KRAS | -5.55 | 0.809 | 0.0109 | 0.00462 | -0.073 | active |
| UCK2 | -2.9 | 0.893 | -0.189 | -0.0185 | -0.129 | inactive |
| XYLB | 0.473 | 1 | 0.0272 | -0.00817 | 0.0523 | inactive |
| PIP5KL1 | -1.68 | 0.932 | -0.154 | -0.0185 | -0.132 | inactive |
| AKT3 | 0.473 | 1 | -0.0521 | 0.0441 | 0.00902 | inactive |
| HIPK2 | 0.473 | 1 | -0.0586 | 0.0333 | -0.0294 | inactive |
| MPP1 | 0.473 | 1 | -0.0919 | -0.00905 | -0.0681 | inactive |
| PKDCC | 0.473 | 1 | 0.00373 | 0.0963 | 0.0506 | inactive |
| TCF7L2 | 0.473 | 1 | -0.0919 | -0.0388 | 0.015 | inactive |
| SRPK1 | -0.678 | 0.963 | -0.0302 | 0.0255 | -0.0304 | inactive |
| NUAK2 | -1.47 | 0.938 | 0.0473 | -0.0149 | 0.0163 | inactive |
| CTNNB1 | -3.95 | 0.86 | -0.144 | -0.0632 | -0.0939 | active |
| FLT3 | 0.473 | 1 | 0.0271 | -0.0724 | -0.00337 | inactive |
| TCF12 | 0.473 | 1 | 0.0837 | 0.0209 | 0.0205 | inactive |
| ITPKC | 0.473 | 1 | -0.00104 | -0.0311 | 0.0063 | inactive |
| FER | 0.473 | 1 | -0.0919 | -0.0119 | 0.000762 | inactive |
| CASP8 | 0.473 | 1 | -0.0919 | -0.0606 | -0.0681 | inactive |
| DGKI | 0.473 | 1 | -0.0919 | -0.0274 | -0.0594 | inactive |
| TGFBR1 | 0.473 | 1 | -0.0456 | -0.0547 | -0.0315 | inactive |
| ULK1 | 0.473 | 1 | -0.0562 | 0.0332 | -0.0217 | inactive |
| PRPS1 | 0.473 | 1 | 0.0182 | 0.0654 | 0.0613 | inactive |
| JAK1 | 0.473 | 1 | 0.067 | 0.0726 | -0.00691 | inactive |
| STK32C | 0.473 | 1 | -0.0919 | 0.0189 | -0.0249 | inactive |
| MELK | 0.473 | 1 | -0.0919 | 0.0604 | -0.0257 | inactive |
| GRK1 | -1.5 | 0.937 | -0.149 | -0.0798 | -0.085 | inactive |

Entries above whose gene name starts with D or d:
| target gene | robust z-score, siRNA alone | viability, siRNA alone (fraction of control) | synergy score with BYL719 | synergy score with trametinib | synergy score with cetuximab | activity call |
| --- | --- | --- | --- | --- | --- | --- |
| DDR2 | 0.473 | 1 | -0.0656 | 0.00915 | -0.0681 | inactive |
| DGKI | 0.473 | 1 | -0.0919 | -0.0274 | -0.0594 | inactive |
